These results are taken from the supplement of paper PMC10849652.

The chains behind the UniProt entries cited, without tags or fusion partners. Where a name states a change or a piece, a line headed by the entry shows the natural chain unless it says otherwise.
UniProt P62942, whole entry, looked up: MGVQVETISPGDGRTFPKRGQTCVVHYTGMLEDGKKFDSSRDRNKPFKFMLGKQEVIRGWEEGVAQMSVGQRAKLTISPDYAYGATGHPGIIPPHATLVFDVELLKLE
UniProt Q96HJ9: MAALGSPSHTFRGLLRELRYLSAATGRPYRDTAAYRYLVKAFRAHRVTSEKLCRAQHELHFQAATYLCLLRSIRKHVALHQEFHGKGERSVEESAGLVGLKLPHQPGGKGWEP
UniProt P39748, whole entry, looked up: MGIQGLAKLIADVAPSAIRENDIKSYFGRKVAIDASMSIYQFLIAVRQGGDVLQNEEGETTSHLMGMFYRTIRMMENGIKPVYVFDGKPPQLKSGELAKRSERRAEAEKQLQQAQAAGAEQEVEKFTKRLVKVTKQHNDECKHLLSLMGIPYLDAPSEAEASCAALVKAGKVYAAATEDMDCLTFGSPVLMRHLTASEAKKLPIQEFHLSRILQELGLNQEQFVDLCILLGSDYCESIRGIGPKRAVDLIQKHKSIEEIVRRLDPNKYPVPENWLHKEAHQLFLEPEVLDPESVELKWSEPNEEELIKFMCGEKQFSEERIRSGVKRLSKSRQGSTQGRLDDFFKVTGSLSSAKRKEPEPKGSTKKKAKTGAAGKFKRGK
UniProt Q9Y680: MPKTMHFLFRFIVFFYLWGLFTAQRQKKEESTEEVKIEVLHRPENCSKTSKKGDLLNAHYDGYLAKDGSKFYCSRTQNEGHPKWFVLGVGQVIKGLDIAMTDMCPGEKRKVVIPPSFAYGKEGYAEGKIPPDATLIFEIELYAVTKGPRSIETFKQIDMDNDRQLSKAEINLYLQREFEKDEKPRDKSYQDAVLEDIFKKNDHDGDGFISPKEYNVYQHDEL
UniProt Q92520: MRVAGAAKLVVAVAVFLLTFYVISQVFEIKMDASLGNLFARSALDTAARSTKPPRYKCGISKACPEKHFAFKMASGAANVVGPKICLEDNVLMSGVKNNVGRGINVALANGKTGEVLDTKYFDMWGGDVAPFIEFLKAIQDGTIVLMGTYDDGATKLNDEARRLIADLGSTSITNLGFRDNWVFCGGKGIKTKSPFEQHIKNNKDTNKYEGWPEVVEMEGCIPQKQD
UniProt Q9NRD1: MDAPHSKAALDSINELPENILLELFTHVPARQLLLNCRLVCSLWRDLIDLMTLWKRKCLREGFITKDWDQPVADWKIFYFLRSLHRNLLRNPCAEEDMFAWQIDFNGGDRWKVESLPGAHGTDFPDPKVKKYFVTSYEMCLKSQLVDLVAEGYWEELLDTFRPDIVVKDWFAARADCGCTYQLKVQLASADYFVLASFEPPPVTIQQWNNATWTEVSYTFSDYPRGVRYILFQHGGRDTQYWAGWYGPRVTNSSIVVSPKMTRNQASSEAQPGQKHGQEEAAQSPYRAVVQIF
UniProt P98173: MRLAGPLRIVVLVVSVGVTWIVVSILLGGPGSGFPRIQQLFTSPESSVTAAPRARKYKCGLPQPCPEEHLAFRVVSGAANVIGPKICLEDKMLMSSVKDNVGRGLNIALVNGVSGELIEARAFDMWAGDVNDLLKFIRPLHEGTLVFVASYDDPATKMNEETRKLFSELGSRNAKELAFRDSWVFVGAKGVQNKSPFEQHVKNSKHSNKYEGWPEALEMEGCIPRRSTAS
UniProt Q6P4F2: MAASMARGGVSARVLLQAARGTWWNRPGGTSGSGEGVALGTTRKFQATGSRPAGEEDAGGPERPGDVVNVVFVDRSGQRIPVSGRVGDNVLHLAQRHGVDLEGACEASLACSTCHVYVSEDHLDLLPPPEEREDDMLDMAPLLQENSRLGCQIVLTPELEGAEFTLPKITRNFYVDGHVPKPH
UniProt Q02790: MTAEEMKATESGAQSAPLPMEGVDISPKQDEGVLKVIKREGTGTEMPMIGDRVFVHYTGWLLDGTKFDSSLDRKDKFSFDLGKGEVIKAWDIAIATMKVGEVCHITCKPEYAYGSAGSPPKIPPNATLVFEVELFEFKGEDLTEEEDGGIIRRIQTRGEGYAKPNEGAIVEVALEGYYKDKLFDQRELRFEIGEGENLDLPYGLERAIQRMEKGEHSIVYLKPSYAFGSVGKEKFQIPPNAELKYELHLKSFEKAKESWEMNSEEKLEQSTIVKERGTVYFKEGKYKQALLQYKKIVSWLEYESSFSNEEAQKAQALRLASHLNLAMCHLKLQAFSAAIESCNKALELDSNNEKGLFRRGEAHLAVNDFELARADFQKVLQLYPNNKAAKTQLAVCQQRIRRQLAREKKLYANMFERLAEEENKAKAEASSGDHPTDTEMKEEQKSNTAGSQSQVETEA
UniProt Q9NYQ8: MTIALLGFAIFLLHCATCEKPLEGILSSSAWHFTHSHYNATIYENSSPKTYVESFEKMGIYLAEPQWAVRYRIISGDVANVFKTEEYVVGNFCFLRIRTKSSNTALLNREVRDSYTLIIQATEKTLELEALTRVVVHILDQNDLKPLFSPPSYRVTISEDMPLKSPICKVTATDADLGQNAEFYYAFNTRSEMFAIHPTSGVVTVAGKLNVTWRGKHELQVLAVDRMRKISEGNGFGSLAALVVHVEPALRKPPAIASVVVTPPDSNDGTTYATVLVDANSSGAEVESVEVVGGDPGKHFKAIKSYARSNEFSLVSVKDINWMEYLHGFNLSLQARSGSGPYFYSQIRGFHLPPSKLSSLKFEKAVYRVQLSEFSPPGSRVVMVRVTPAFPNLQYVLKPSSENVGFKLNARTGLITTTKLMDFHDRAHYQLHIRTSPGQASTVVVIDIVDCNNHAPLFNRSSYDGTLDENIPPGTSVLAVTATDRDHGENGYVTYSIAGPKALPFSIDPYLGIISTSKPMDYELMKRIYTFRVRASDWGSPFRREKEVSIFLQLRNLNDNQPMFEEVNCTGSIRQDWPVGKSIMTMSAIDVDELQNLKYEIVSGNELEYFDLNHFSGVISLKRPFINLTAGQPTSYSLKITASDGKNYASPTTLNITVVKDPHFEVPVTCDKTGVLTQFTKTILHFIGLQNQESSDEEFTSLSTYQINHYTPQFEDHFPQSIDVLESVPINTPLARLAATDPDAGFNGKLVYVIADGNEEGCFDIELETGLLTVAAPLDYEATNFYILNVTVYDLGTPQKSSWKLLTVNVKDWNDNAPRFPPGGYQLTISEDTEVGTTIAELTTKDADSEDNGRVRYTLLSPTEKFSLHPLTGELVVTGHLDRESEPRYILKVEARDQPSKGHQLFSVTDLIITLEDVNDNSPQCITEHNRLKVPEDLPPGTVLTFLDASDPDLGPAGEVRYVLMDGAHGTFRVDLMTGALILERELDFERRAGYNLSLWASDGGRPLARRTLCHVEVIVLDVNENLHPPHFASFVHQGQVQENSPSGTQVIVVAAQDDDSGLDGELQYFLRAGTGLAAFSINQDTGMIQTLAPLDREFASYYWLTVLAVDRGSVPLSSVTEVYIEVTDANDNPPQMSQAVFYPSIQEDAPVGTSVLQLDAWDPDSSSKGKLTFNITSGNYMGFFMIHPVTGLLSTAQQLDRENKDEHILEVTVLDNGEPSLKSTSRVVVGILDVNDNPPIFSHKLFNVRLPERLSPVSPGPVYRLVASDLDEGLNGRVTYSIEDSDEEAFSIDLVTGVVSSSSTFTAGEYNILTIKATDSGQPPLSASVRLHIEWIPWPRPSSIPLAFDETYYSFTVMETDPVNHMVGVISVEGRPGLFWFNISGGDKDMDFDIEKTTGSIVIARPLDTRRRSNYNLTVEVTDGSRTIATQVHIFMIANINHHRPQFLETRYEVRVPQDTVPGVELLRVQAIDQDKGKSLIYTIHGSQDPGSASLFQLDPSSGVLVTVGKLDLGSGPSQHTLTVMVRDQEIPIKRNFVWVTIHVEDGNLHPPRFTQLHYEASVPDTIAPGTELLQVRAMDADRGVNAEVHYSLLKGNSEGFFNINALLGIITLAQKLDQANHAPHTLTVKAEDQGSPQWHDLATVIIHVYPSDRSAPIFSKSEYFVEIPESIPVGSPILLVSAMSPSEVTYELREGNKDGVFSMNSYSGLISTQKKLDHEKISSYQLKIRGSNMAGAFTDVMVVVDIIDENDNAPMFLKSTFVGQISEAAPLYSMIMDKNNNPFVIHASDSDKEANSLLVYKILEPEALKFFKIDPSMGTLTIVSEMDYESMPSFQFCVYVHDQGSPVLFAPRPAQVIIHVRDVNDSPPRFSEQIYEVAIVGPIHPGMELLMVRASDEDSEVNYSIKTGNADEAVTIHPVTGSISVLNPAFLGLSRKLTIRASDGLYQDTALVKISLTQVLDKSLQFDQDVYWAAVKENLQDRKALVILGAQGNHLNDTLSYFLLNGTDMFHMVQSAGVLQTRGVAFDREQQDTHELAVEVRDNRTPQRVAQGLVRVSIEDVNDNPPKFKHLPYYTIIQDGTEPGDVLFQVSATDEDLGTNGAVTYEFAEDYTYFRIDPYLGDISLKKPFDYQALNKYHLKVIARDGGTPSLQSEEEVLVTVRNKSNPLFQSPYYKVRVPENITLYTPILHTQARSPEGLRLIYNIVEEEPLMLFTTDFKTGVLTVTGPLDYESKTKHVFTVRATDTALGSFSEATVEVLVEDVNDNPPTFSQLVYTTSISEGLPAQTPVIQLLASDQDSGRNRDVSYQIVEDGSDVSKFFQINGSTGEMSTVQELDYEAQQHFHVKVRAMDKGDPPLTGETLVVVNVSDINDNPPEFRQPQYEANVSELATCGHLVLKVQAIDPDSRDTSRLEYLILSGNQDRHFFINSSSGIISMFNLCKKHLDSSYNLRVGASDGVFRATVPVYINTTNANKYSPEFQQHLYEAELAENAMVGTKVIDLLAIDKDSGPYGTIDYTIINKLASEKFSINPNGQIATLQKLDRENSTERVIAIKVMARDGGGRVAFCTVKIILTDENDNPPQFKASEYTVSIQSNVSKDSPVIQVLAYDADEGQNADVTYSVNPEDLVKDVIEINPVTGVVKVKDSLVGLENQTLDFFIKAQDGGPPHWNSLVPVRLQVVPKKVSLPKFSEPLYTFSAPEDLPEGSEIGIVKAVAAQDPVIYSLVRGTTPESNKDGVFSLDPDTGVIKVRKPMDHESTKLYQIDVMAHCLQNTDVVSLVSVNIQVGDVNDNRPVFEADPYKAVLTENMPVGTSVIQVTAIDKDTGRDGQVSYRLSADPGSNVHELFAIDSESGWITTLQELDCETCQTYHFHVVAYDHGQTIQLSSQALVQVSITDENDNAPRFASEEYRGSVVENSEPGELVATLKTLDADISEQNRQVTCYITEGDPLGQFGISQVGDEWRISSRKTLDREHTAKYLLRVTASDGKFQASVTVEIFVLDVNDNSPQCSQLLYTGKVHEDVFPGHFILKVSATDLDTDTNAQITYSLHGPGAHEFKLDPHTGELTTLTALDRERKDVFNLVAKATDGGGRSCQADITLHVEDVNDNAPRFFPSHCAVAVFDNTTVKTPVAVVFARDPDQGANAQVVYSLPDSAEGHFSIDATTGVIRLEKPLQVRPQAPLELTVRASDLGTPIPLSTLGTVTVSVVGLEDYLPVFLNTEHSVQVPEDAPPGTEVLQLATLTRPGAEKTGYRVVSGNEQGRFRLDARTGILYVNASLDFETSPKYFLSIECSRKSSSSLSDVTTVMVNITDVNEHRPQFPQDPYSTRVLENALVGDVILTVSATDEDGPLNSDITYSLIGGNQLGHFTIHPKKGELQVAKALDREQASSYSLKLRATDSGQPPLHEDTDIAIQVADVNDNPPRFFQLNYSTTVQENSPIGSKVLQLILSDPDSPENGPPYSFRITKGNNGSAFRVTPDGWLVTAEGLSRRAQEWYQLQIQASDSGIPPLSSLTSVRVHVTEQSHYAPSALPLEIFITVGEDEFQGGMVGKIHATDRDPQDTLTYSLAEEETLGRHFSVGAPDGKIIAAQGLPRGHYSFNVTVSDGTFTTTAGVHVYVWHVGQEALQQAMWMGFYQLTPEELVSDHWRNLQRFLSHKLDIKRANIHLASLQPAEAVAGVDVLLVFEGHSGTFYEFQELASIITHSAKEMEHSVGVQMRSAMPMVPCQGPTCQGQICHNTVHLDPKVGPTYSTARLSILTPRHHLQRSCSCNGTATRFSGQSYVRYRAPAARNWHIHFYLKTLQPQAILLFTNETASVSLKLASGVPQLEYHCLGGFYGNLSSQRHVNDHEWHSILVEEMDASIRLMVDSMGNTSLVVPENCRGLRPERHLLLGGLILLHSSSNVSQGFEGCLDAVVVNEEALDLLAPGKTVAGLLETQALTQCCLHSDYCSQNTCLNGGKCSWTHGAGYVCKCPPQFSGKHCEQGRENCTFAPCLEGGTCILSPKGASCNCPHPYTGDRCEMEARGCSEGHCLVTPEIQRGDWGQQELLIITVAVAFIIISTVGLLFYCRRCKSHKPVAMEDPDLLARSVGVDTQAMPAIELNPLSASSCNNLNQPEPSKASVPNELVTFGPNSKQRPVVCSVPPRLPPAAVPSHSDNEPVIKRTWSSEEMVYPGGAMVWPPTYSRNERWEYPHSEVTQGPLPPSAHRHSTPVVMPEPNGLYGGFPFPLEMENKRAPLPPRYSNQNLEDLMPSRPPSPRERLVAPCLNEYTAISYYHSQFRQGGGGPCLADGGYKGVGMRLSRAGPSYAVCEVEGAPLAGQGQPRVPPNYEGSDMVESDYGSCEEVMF

Test in all cases: log2 fold change, soluble protein after heating vs DMSO (PISA); higher = thermal stabilisation; K562 cells, 10 uM, 30 min; active = over 0.2 and 3.5 SD of the protein, either way, in both replicates (recomputed)
Compound in assay [1]: C1=CC=C(C=C1)[C@H](COC2=CC3=C(C=C2)NC(=O)N3)NC(=O)C4=CC=CN(C4=O)CC5=CC(=C(C=C5)F)F
A digest of the protocol: (§1)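 K562 cells at 2×10^6 cells/mL were given 10 μM compound for 30 min. Aliquots then went through 3 min of heating across 48°C-58°C, were pooled, and were extracted in PBS with 0.5% NP-40 at 4°C, and the supernatant after 21,000xg for 90 min was quantified by TMTpro 16plex LC-MS/MS with channel sums equalised. Thermal stability relative to control samples, from duplicates, is given as log2 fold change.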

Compound in assay [2]: CC1=C(SC2=C1C(=N[C@H](C3=NN=C(N32)C)CC(=O)N)C4=CC=C(C=C4)Cl)C
A digest of the protocol: as §1

Compound in assay [3]: CC1=C2C(=CC=C1)N=C(N(C2=O)C3=CC=CC=C3C)CN4C=NC5=C(N=CN=C54)N
A digest of the protocol:
as §1

Compound in assay [4]: Cc1sc2c(c1C)C(c1ccc(Cl)cc1)=N[C@@H](CC(=O)OC(C)(C)C)c1nnc(C)n1-2
An outline of the steps:
as §1

Compound in assay [5]: c1ccc([C@@H]2C[C@H]2NC2CCNCC2)cc1
An outline of the steps: as §1

The list shows a part of the results.

As for FLNB isoform 8 (UniProt O75369), the log2 fold change is inactive: -0.015 in assay [1]; inactive: 0.06 in assay [2]; inactive: 0.045 in assay [3]; inactive: 0.005 in assay [4]; inactive: 0 in assay [5].
FKBP1A (UniProt P62942): the log2 fold change in assay [1] was inactive: 0.116; in assay [2] it was inactive: 0.124; in assay [3], inactive: 0.207; in assay [4], inactive: -0.101; in assay [5], inactive: -0.158.
Take FGF2 (UniProt P09038): the log2 fold change in assay [1] was inactive: -0.019; in assay [2] it was inactive: -0.019; in assay [3], inactive: -0.016; in assay [4], inactive: 0.072; in assay [5], inactive: 0.015.
On to FGGY isoform 3 (UniProt Q96C11), for which the log2 fold change is inactive: -0.057 in assay [1]; inactive: -0.159 in assay [2]; inactive: -0.078 in assay [3]; inactive: -0.257 in assay [4]; inactive: 0.244 in assay [5].
Regarding FAM234B (UniProt A2RU67), the log2 fold change in assay [1] was inactive: 0.125; in assay [2], inactive: 0.084; in assay [3], inactive: -0.083; in assay [4] it was inactive: -0.172; in assay [5] it was inactive: 0.168.
Take FAT1 (UniProt Q14517): the log2 fold change in assay [1] is inactive: -0.059; in assay [2] it was inactive: -0.038; in assay [3] it was inactive: 0.126; in assay [4], inactive: -0.071; in assay [5], inactive: 0.155.
Take FN1 isoform 1 (UniProt P02751): the log2 fold change was inactive: -0.076 in assay [1]; inactive: 0.018 in assay [2]; inactive: 0.002 in assay [3]; inactive: -0.018 in assay [4]; inactive: 0.033 in assay [5].
For the target FMC1 (UniProt Q96HJ9), the log2 fold change is inactive: 0.009 in assay [1]; inactive: 0.06 in assay [2]; inactive: 0.044 in assay [3]; inactive: 0 in assay [4]; inactive: -0.002 in assay [5].
Regarding FEN1 (UniProt P39748), the log2 fold change was inactive: -0.198 in assay [1]; inactive: 0.097 in assay [2]; inactive: 0.157 in assay [3]; inactive: -0.009 in assay [4]; inactive: -0.043 in assay [5].
For FKBP7 (UniProt Q9Y680), in that order: inactive: -0.027, inactive: 0.005, inactive: 0.091, inactive: 0.009 and inactive: 0.102.
With FAM3C (UniProt Q92520), the log2 fold change is inactive: 0.002 in assay [1]; inactive: 0.033 in assay [2]; inactive: 0.002 in assay [3]; inactive: 0.055 in assay [4]; inactive: -0.019 in assay [5].
As for FLOT2 (UniProt Q14254), the log2 fold change in assay [1] was inactive: 0.047; in assay [2], inactive: -0.128; in assay [3], inactive: -0.028; in assay [4], inactive: -0.038; in assay [5] it was inactive: -0.079.
For FLII (UniProt Q13045), in that order: inactive: -0.013, inactive: -0.005, inactive: 0.052, inactive: 0.034 and inactive: -0.022.
As for FCHO2 (UniProt Q0JRZ9), the log2 fold change in assay [1] is inactive: -0.025; in assay [2], inactive: 0.053; in assay [3] it was inactive: 0.061; in assay [4] it was inactive: -0.003; in assay [5], inactive: 0.043.
Consider FDPS (UniProt P14324), for which the log2 fold change in assay [1] is inactive: -0.328; in assay [2], inactive: 0.063; in assay [3], inactive: 0.143; in assay [4] it was inactive: 0.001; in assay [5] it was inactive: -0.121.
Take FAU (UniProt P62861): the log2 fold change in assay [1] was inactive: 0.13; in assay [2], inactive: -0.33; in assay [3], inactive: -0.273; in assay [4], inactive: 0.12; in assay [5] it was inactive: -0.001.
With FAM76B (UniProt Q5HYJ3), the log2 fold change was inactive: 0.058 in assay [1]; inactive: 0.071 in assay [2]; inactive: 0.241 in assay [3]; inactive: 0.004 in assay [4]; inactive: -0.039 in assay [5].
Take FDFT1 (UniProt P37268): the log2 fold change in assay [1] was inactive: -0.064; in assay [2], active: 0.319; in assay [3], inactive: 0.089; in assay [4] it was inactive: 0.109; in assay [5] it was inactive: -0.021.
On to FAM210B (UniProt Q96KR6), for which the log2 fold change in assay [1] is inactive: 0.022; in assay [2], inactive: -0.018; in assay [3], inactive: -0.08; in assay [5] it was inactive: 0.015.
Consider FLNC (UniProt Q14315), for which the log2 fold change was inactive: -0.014 in assay [1]; inactive: 0.028 in assay [2]; inactive: 0.035 in assay [3]; inactive: 0 in assay [4]; inactive: -0.003 in assay [5].
The like results for FBXO6 (UniProt Q9NRD1) were, in that order, inactive: 0.013, inactive: 0.087, inactive: 0.041, inactive: -0.041 and inactive: -0.032.
Take FAM3A (UniProt P98173): the log2 fold change in assay [1] is inactive: -0.01; in assay [2] it was inactive: -0.001; in assay [3], inactive: 0.038; in assay [4], inactive: -0.051; in assay [5] it was inactive: -0.014.
With FDX2 (UniProt Q6P4F2), the log2 fold change is inactive: 0.047 in assay [1]; inactive: 0.064 in assay [2]; inactive: 0.025 in assay [3]; inactive: -0.028 in assay [4]; inactive: 0.024 in assay [5].
The like results for FKBP4 (UniProt Q02790) were, in that order, inactive: -0.032, inactive: 0.042, inactive: 0.037, inactive: 0.004 and inactive: -0.029.
For the target FAT2 (UniProt Q9NYQ8), the log2 fold change in assay [1] is inactive: -0.092; in assay [2], active: 0.669; in assay [3], inactive: 0.163; in assay [4], inactive: -0.091; in assay [5] it was inactive: -0.218.
As for FNBP1L (UniProt Q5T0N5), the log2 fold change in assay [1] was inactive: 0.003; in assay [2] it was inactive: 0.039; in assay [3] it was inactive: -0.034; in assay [4], inactive: 0; in assay [5] it was inactive: -0.029.
For FGF13 isoform 3 (UniProt Q92913), the log2 fold change in assay [1] is inactive: 0.005; in assay [2], inactive: 0.051; in assay [3] it was inactive: 0.035; in assay [4], inactive: 0.007; in assay [5], inactive: -0.085.
